According to paper PMC11053077, “HBO1 catalyzes lysine lactylation and mediates histone H3K9la to regulate gene transcription” (Nature Communications, 2024):
Results are given in words; binding and its absence hold for the method and conditions named. Binding seen in cells or lysates may run through a third protein. Some results given as binding are weak or reduced against the parent protein; the word gives no strength.

Chains of the proteins cited; added tags and fusions are not shown.
UniProt O95251: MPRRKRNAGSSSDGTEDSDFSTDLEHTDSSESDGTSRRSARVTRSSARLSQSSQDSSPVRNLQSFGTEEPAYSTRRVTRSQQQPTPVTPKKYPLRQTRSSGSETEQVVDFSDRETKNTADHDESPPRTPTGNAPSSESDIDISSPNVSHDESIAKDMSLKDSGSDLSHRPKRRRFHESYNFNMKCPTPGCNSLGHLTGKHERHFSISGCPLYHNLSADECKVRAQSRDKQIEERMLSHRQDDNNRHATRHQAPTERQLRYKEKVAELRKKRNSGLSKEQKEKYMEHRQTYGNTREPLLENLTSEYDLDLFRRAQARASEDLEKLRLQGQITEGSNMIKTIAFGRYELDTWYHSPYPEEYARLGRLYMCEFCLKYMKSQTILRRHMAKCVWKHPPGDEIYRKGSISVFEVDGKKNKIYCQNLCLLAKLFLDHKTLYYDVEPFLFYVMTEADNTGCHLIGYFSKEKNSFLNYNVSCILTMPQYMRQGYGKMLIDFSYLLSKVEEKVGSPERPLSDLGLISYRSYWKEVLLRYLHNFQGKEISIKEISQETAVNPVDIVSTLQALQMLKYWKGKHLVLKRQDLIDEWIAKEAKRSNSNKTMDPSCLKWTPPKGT
UniProt Q6IE81: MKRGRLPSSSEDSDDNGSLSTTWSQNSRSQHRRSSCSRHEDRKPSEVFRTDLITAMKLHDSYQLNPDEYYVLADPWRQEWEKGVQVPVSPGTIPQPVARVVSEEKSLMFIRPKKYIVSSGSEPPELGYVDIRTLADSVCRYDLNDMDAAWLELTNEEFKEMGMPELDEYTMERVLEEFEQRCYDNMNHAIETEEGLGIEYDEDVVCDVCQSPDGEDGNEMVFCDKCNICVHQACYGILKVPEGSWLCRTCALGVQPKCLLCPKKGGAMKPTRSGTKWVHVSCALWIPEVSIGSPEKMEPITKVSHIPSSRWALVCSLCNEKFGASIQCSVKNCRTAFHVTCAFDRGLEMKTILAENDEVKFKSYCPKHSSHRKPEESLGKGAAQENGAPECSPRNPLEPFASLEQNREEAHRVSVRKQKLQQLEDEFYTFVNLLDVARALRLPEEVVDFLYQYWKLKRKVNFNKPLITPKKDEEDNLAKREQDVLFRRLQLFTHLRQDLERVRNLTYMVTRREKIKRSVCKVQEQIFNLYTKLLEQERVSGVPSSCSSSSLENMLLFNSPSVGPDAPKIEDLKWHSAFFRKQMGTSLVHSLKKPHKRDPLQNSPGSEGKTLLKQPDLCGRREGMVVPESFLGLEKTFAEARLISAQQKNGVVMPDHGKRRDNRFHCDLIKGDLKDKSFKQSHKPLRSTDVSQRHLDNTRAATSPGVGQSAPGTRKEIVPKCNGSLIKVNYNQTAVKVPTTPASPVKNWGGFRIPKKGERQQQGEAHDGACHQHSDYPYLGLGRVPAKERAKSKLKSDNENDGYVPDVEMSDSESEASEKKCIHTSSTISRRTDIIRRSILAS

Biological target: Flag-HBO1 (UniProt O95251)
Experiment: co-IP; Flag-HBO1 co-transfected with its scaffold protein in HEK293T; 48 h after transfection cells lysed (50 mM Tris-HCl pH 7.5, 150 mM NaCl, 1% Triton X-100, 1 mM EDTA, 1 mM DTT, 8% glycerol); supernatant on anti-Flag M2 beads overnight at 4 °C; washed 3 times with lysis buffer; eluted with Flag peptide

binding: binds
Substance: Flag-JADE1 (from UniProt Q6IE81 1-842)
